# Test results from paper PMC9947146.
# Results are given in words; binding and its absence hold for the method and conditions named. In cells and extracts the contact can be indirect. Some results given as binding are weak or reduced against the parent protein; the word gives no strength.
# Legend:
# [1] = molecular target: T1, HspBP1 (human (endogenous in CEM cells and patients' CD4+T cells)) (UniProt Q9NZL4); assay: co-IP; endogenous proteins; total proteins (RIPA lysis buffer) of CEM cells infected with HIV pseudovirus and of CD4+T cells of acute HIV infected patients incubated with HSPA14 or HspBP1 antibodies, Classic Magnetic IP/Co-IP Kit, immunoblot
# T1 sequence: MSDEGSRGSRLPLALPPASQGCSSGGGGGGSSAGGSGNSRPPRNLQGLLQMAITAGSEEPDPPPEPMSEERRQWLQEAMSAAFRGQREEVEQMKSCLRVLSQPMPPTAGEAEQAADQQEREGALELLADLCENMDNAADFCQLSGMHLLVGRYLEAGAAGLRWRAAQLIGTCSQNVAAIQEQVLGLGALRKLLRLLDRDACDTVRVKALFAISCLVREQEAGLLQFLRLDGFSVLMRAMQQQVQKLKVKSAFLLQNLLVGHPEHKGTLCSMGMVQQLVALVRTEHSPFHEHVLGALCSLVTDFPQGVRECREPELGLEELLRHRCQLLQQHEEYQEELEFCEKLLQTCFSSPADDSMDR
# [2] = molecular target: T2, HSPA14 (human (endogenous in CEM cells and patients' CD4+T cells)) (UniProt Q0VDF9); assay: as above
# T2 sequence: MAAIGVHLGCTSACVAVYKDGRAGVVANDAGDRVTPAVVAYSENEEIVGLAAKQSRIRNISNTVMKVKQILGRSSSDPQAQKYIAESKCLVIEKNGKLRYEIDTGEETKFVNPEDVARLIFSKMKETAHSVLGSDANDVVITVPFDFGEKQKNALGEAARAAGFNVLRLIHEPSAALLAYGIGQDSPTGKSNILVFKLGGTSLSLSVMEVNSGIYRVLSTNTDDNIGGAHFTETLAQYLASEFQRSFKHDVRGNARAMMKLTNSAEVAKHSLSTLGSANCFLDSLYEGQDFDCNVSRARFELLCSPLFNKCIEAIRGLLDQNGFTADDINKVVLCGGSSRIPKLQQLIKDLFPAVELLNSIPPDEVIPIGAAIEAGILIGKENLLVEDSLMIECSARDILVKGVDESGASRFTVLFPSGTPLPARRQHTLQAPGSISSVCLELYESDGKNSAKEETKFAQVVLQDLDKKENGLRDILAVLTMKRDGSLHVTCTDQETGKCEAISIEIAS
Binder,binding [1],binding [2]
"HSPA14 (protein, UniProt Q0VDF9 1-509) MAAIGVHLGCTSACVAVYKDGRAGVVANDAGDRVTPAVVAYSENEEIVGLAAKQSRIRNISNTVMKVKQILGRSSSDPQAQKYIAESKCLVIEKNGKLRYEIDTGEETKFVNPEDVARLIFSKMKETAHSVLGSDANDVVITVPFDFGEKQKNALGEAARAAGFNVLRLIHEPSAALLAYGIGQDSPTGKSNILVFKLGGTSLSLSVMEVNSGIYRVLSTNTDDNIGGAHFTETLAQYLASEFQRSFKHDVRGNARAMMKLTNSAEVAKHSLSTLGSANCFLDSLYEGQDFDCNVSRARFELLCSPLFNKCIEAIRGLLDQNGFTADDINKVVLCGGSSRIPKLQQLIKDLFPAVELLNSIPPDEVIPIGAAIEAGILIGKENLLVEDSLMIECSARDILVKGVDESGASRFTVLFPSGTPLPARRQHTLQAPGSISSVCLELYESDGKNSAKEETKFAQVVLQDLDKKENGLRDILAVLTMKRDGSLHVTCTDQETGKCEAISIEIAS",binds,–
"HspBP1 (protein, UniProt Q9NZL4 1-359) MSDEGSRGSRLPLALPPASQGCSSGGGGGGSSAGGSGNSRPPRNLQGLLQMAITAGSEEPDPPPEPMSEERRQWLQEAMSAAFRGQREEVEQMKSCLRVLSQPMPPTAGEAEQAADQQEREGALELLADLCENMDNAADFCQLSGMHLLVGRYLEAGAAGLRWRAAQLIGTCSQNVAAIQEQVLGLGALRKLLRLLDRDACDTVRVKALFAISCLVREQEAGLLQFLRLDGFSVLMRAMQQQVQKLKVKSAFLLQNLLVGHPEHKGTLCSMGMVQQLVALVRTEHSPFHEHVLGALCSLVTDFPQGVRECREPELGLEELLRHRCQLLQQHEEYQEELEFCEKLLQTCFSSPADDSMDR",–,binds
